{"source": "patent US20240043530A1", "about": "(JIANGSU HENGRUI PHARMACEUTICALS, published 2024)", "binders": {"B1": {"name": "anti-TIGIT antibody 1708 (antibody, human IgG4 S228P, kappa, V domains shown)", "VH": "EVQLVQSGAEVKKPGASVKVSCKASGYTFTNYWMHWVRQAPGQGLEWMGRIDPDSTGSKYNEKFKTRVTMTRDTSTSTVYMELSSLRSEDTAVYYCAREGAYGYYFDYWGQGTLVTVSS", "VL": "DIQMTQSPSSLSASVGDRVTITCRASENIYSYLAWYQQKPGKSPKLLIYNARTLAEGVPSRFSGSGSGTDFTLTISSLQPEDFATYYCQYHSGSPLPFGGGTKVEIKR", "notes": "human IgG4 subtype with S228P; kappa light chain"}}, "key": {"[1]": {"biological_target": "cynomolgus monkey TIGIT recombinant protein (cynomolgus monkey)", "assay": "ELISA, plate coated with cynomolgus monkey TIGIT recombinant protein, HRP anti-human IgG, OD450 (method of Example 4 with TIGIT)"}, "[2]": {"biological_target": "cynomolgus monkey TIGIT expressed on cells (cynomolgus monkey)", "assay": "flow cytometry on cells overexpressing cynomolgus monkey TIGIT, labelled anti-human IgG (method of Example 5 with TIGIT)"}}, "note": "No constants are given. Whether binding was seen depends on the method and setting. Some binding calls cover weakened binding; strength is not graded here.", "data": [{"binder": "B1", "values": [{"measurement": "binding", "setting": "[1]", "value": "binds"}, {"measurement": "binding", "setting": "[2]", "value": "binds"}]}]}
